No constants are given. Whether binding was seen depends on the method and setting. In cells and extracts the contact can be indirect. A result given as binding can be weak or reduced; the word gives no strength. Tags and fused reporters may be left off the sequences shown.
Target: T1, PAG1-FLAG (Arabidopsis thaliana) (UniProt O23715)
T1 sequence: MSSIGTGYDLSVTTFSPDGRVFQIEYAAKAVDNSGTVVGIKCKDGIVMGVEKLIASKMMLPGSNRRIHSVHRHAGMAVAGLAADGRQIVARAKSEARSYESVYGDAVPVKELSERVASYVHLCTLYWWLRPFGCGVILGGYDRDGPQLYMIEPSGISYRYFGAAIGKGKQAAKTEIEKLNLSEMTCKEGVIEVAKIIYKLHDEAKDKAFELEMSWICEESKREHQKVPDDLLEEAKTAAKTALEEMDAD
Experiment: co-IP; PAG1-FLAG on anti-FLAG M2 resin from seedling lysate, lysis and co-IP without exogenous ATP, 12-h time point, eluates immunoblotted

binding: binds
Substance: HSP70

Source: publication PMC8543921
